The experiment concerns the target TRIM63 (endogenous) (human (endogenous in HEK293T)) (UniProt Q969Q1). Kind of experiment: affinity purification with mass spectrometry; 293T cells with or without EGF (100 ng/mL) for 30 min; IP with an anti-TRIM63 antibody, SDS-PAGE, Coomassie; band at approximately 48 kDa seen upon EGF excised for mass spectrometry (Fig. 4A, B).

Amino acid sequences for entries named in this document (tags omitted).
UniProt Q969Q1: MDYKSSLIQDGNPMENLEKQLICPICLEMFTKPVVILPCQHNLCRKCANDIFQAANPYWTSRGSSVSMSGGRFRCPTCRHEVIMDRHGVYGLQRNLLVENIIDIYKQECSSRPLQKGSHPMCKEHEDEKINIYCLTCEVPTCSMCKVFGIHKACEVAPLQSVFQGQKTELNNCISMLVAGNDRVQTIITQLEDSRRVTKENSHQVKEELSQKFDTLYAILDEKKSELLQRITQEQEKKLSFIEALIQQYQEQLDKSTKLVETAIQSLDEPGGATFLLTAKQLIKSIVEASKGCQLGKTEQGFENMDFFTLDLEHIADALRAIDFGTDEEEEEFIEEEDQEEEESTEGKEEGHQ

Results are given in words; binding and its absence hold for the method and conditions named. Binding seen in cells or lysates may run through a third protein. A yes stands for co-enrichment or nearness to the bait. Other partners may have been found.

B1: IRF-8 (endogenous) (protein, UniProt Q02556 1-426)
chain: MCDRNGGRRLRQWLIEQIDSSMYPGLIWENEEKSMFRIPWKHAGKQDYNQEVDASIFKAWAVFKGKFKEGDKAEPATWKTRLRCALNKSPDFEEVTDRSQLDISEPYKVYRIVPEEEQKCKLGVATAGCVNEVTEMECGRSEIDELIKEPSVDDYMGMIKRSPSPPEACRSQLLPDWWAQQPSTGVPLVTGYTTYDAHHSAFSQMVISFYYGGKLVGQATTTCPEGCRLSLSQPGLPGTKLYGPEGLELVRFPPADAIPSERQRQVTRKLFGHLERGVLLHSSRQGVFVKRLCQGRVFCSGNAVVCKGRPNKLERDEVVQVFDTSQFFRELQQFYNSQGRLPDGRVVLCFGEEFPDMAPLRSKLILVQIEQLYVRQLAEEAGKSCGAGSVMQAPEEPPPDQVFRMFPDICASHQRSFFRENQQITV
For B1, the binding entry is on record as “binds”.

Values taken from PMC12663380.
